Reference: the supplement of paper PMC7666118
The list shows a part of the results.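 The calls were made as follows: active = dose-dependent thermal stabilisation significant by F-test of dose-response against flat model at 10% FDR; inactive = not significant.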

Protein sequences, listed by entry. Tags and fused reporters are not part of them. Lines headed by an entry give the natural chain unless they say otherwise; changes in a name come on top.
UniProt P62937, whole entry, looked up: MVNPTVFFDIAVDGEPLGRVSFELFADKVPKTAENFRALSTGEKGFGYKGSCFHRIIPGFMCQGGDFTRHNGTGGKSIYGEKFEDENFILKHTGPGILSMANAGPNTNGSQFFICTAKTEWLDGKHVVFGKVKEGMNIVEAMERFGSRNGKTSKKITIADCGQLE
UniProt P53041: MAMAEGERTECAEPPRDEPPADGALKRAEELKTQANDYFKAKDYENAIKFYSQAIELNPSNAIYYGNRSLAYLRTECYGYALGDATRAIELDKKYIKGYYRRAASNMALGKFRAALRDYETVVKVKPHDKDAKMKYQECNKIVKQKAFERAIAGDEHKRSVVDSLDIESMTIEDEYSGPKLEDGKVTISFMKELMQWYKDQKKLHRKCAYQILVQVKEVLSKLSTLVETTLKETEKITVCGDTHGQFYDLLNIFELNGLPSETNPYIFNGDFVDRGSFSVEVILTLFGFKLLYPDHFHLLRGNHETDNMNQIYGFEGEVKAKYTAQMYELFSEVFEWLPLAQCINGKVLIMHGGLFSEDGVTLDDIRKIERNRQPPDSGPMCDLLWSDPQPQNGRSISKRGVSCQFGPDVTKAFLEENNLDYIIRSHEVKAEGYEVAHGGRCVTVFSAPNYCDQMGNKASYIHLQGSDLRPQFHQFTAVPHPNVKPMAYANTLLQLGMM
UniProt Q66LE6: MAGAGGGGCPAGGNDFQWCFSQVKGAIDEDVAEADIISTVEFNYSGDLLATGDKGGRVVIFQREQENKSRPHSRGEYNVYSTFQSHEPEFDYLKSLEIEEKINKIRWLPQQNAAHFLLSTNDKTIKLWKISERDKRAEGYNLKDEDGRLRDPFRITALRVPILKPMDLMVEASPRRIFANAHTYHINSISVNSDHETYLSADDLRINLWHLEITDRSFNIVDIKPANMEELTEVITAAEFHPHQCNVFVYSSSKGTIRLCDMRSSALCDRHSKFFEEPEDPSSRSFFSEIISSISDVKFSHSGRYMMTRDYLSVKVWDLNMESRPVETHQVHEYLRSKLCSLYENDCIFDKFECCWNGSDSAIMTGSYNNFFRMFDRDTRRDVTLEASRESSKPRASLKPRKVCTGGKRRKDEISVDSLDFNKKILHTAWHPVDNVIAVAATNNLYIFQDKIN
UniProt Q96HC4: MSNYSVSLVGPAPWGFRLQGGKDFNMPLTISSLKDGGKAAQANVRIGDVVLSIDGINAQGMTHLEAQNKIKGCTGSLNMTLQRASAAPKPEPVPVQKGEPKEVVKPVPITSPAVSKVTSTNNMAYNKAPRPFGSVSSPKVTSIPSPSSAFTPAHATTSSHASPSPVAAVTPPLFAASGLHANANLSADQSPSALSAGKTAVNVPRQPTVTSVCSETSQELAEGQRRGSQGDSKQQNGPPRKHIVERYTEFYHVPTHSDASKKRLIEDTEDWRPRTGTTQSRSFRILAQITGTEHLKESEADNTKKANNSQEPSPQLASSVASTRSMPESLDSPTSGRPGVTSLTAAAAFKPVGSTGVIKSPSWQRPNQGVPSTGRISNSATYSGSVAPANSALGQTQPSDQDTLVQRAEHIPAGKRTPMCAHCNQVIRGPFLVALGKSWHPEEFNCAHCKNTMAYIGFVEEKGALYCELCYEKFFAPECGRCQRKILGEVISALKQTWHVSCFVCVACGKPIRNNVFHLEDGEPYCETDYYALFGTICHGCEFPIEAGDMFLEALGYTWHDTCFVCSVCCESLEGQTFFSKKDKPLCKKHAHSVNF
UniProt P42336, whole entry: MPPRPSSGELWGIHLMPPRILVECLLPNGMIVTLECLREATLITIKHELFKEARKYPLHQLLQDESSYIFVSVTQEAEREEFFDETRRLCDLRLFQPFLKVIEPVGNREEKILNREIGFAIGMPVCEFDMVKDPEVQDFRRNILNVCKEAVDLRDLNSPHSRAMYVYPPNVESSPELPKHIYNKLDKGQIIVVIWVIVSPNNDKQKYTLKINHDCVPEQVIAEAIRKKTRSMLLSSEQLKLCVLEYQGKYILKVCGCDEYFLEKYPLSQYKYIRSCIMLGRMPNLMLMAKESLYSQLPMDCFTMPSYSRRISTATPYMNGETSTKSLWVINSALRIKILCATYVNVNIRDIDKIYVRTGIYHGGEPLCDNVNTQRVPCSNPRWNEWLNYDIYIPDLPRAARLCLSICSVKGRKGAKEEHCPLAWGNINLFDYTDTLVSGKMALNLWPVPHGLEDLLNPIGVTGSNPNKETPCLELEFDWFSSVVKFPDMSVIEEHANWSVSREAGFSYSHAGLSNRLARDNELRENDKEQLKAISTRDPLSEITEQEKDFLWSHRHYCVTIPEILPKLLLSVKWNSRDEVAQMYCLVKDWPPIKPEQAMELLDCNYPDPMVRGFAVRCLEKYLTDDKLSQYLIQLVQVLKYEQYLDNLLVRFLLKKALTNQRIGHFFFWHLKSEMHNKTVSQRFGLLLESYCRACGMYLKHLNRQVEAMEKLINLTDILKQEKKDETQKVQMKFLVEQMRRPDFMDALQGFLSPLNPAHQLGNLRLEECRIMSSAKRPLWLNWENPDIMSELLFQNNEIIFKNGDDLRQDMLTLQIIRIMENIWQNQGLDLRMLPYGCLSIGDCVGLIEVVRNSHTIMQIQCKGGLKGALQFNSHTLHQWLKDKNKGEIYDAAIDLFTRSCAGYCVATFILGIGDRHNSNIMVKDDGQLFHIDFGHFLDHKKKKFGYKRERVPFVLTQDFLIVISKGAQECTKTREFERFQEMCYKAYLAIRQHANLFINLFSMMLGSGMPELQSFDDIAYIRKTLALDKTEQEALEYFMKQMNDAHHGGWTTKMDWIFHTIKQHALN
UniProt P0CAP2, whole entry: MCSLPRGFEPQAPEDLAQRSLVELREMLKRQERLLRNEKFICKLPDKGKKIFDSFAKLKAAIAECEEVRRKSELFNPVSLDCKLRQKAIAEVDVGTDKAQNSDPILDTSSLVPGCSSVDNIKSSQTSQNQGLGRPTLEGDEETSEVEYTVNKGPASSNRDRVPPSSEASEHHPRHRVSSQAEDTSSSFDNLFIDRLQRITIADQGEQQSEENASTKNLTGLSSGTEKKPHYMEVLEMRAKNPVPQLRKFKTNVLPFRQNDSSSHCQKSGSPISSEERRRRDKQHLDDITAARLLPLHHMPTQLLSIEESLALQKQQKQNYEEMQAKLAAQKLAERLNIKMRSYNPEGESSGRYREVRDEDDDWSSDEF
UniProt P46019: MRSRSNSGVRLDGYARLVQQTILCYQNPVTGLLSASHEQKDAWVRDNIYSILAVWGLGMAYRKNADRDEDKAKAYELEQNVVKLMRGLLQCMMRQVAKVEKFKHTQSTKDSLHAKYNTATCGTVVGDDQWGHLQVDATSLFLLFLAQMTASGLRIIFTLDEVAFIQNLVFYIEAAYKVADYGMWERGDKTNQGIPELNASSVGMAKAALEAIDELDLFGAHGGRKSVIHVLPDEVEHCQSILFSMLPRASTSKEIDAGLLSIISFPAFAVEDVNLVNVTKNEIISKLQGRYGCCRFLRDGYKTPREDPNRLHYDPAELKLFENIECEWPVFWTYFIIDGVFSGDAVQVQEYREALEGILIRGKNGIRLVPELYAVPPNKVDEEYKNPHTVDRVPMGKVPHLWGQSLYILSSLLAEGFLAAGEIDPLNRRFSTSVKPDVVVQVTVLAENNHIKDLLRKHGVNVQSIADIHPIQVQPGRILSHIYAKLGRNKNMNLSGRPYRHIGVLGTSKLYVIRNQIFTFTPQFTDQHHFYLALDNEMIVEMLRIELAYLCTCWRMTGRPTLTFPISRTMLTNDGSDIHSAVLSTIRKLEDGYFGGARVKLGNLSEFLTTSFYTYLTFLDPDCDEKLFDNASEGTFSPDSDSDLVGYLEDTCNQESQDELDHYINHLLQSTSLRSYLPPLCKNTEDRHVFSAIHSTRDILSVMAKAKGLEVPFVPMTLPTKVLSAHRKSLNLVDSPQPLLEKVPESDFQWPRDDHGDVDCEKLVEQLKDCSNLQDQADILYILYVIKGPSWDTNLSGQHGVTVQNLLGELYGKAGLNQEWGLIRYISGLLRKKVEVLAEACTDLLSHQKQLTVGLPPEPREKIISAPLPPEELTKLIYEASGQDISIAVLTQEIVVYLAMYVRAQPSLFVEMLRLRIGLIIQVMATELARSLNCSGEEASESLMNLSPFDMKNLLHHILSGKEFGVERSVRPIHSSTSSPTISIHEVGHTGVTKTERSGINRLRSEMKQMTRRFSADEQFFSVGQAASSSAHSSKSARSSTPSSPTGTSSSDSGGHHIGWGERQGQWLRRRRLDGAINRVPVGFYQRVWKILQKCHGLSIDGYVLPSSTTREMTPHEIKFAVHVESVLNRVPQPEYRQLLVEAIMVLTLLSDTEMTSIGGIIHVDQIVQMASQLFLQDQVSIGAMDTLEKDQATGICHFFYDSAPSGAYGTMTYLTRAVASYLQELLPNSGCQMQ
UniProt Q9H792: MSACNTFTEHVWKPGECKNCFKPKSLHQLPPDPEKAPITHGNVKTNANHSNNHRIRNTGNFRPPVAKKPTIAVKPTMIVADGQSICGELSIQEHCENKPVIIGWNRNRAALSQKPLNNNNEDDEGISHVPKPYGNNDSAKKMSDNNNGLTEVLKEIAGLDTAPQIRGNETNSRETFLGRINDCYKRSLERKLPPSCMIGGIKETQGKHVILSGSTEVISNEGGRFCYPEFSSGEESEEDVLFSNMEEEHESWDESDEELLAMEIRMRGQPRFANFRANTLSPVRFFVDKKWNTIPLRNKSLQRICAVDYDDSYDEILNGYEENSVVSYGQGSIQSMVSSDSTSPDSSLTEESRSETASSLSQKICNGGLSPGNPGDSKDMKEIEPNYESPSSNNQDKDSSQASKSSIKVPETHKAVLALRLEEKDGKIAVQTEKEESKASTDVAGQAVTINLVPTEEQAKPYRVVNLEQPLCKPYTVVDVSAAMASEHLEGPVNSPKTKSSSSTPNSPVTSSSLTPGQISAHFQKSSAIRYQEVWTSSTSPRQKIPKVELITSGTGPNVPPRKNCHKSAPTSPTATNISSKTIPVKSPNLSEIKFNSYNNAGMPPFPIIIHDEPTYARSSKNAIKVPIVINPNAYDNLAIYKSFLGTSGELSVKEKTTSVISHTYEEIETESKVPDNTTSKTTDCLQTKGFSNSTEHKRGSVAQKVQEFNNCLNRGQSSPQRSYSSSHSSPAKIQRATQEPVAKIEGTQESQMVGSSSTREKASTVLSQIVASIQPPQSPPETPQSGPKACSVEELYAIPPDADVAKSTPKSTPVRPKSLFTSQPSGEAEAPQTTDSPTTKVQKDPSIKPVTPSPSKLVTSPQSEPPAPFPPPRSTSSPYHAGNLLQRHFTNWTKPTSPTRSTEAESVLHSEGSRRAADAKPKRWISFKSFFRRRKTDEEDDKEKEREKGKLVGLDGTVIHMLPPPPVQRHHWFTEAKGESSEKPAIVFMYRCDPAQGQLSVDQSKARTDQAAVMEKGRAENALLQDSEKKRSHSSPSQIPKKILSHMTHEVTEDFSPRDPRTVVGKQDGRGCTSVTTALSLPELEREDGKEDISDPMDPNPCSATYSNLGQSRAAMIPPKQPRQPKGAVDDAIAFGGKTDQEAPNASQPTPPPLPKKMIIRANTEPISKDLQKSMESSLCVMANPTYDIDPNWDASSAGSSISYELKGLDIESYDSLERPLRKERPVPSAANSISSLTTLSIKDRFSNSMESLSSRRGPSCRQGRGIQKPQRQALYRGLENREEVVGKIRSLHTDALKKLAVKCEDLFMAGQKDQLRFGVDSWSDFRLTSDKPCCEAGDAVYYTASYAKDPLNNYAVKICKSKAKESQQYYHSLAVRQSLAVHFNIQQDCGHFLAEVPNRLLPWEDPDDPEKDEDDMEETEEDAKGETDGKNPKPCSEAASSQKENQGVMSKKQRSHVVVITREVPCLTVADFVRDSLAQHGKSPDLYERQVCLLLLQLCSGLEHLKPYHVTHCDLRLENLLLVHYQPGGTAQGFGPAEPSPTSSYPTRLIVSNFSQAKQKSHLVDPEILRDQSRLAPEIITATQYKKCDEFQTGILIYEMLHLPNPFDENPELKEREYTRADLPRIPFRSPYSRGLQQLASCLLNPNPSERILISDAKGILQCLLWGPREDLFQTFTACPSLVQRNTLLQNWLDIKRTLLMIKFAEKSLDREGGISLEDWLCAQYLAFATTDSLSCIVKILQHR
UniProt Q9BUL5: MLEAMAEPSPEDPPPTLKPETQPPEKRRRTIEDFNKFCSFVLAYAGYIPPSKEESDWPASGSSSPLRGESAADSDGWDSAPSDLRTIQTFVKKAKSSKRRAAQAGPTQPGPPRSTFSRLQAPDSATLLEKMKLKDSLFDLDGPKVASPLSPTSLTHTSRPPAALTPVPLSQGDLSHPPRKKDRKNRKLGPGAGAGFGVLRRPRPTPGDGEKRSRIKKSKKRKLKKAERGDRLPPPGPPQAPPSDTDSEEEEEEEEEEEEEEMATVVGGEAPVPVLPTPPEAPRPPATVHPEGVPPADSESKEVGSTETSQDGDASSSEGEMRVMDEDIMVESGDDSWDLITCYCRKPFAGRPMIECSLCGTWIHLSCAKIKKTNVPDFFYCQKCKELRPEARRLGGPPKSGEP

compound: Nc1nc2c(ncn2[C@@H]2O[C@H](COP(=O)(O)OP(=O)(O)OP(=O)(O)O)[C@@H](O)[C@H]2O)c(=O)[nH]1; experiment: dose-dependent thermal stabilisation call (2D-TPP, DLPTP, 10% FDR) (binary (1 = stabilised)); higher = stabilised by the compound; conditions: system: Jurkat gel-filtered lysate; concentration range 1-500 µM
Experimental: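 2D thermal proteome profiling in gel-filtered Jurkat E6.1 lysate (2 mg/ml) treated with NaGTP (0, 1, 10, 100, 500 uM) for 10 min at room temperature, then heated 3 min at one of 12 temperatures (42-63.9 C). Soluble protein was quantified by TMT10 MS. The value is the DLPTP call of the paper: dose-dependent thermal stabilisation over all temperatures at 10% FDR (F-test of a dose-response against a flat model); one experiment, one call per tested protein.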

Target | dose-dependent thermal stabilisation call
PPP2R5E (UniProt Q16537) | active: 1
POLG2 (UniProt Q9UHN1) | inactive: 0
POLR2E (UniProt P19388) | inactive: 0
PPIA (UniProt P62937) | inactive: 0
PLRG1 (UniProt O43660) | inactive: 0
POLR2D (UniProt O15514) | inactive: 0
PFDN6 (UniProt O15212) | inactive: 0
PPP5C (UniProt P53041) | inactive: 0
PCBP1 (UniProt Q15365) | inactive: 0
PPP2R2D (UniProt Q66LE6) | inactive: 0
PDLIM5 (UniProt Q96HC4) | inactive: 0
PIK3CA (UniProt P42336) | inactive: 0
POLR2M (UniProt P0CAP2) | inactive: 0
PNP (UniProt P00491) | inactive: 0
PDCD10 (UniProt Q9BUL8) | inactive: 0
PHKA2 (UniProt P46019) | inactive: 0
PRDX1 (UniProt Q06830) | inactive: 0
PPP4R2 (UniProt Q9NY27) | inactive: 0
PHGDH (UniProt O43175) | inactive: 0
PPP2R5C (UniProt Q13362) | inactive: 0

Three records picked at random from the list so far, as already listed:
Target | dose-dependent thermal stabilisation call
POLG2 (UniProt Q9UHN1) | inactive: 0
PNP (UniProt P00491) | inactive: 0
PDLIM5 (UniProt Q96HC4) | inactive: 0

The listing continues.

Target | dose-dependent thermal stabilisation call
PDAP1 (UniProt Q13442) | inactive: 0
POP4 (UniProt O95707) | inactive: 0
PIK3CG (UniProt P48736) | inactive: 0
PLEKHM2 (UniProt Q8IWE5) | inactive: 0
PGK1 (UniProt P00558) | inactive: 0
PIAS2 (UniProt O75928) | active: 1
PEAK1 (UniProt Q9H792) | inactive: 0
PHF23 (UniProt Q9BUL5) | inactive: 0
POLDIP2 (UniProt Q9Y2S7) | inactive: 0
POLE (UniProt Q07864) | inactive: 0
PMVK (UniProt Q15126) | active: 1
PQBP1 (UniProt O60828) | inactive: 0
PECAM1 (UniProt P16284) | inactive: 0
PHYKPL (UniProt Q8IUZ5) | inactive: 0
PNN (UniProt Q9H307) | inactive: 0
PLAA (UniProt Q9Y263) | inactive: 0
PPP6R1 (UniProt Q9UPN7) | inactive: 0
PLCL1 (UniProt Q15111) | inactive: 0
PBK (UniProt Q96KB5) | inactive: 0
PPIL1 (UniProt Q9Y3C6) | inactive: 0
